These results are taken from PubChem BioAssay AID1347423 (Functional Genomics Laboratory (NCATS/FGL), 2020).

Out of some 52,000 sequences screened, about 210 (0.4%) were called active.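 How the source made its calls: active means gene whose silencing raises cell survival under the drug, median off-target-corrected z-score across its silencing RNAs 2 or more; inactive means the rest.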 This is one part of the list.

The assay in a line: Resistance to Poly (ADP-Ribose) Polymerase inhibitor: Gene Identification via Genome-wide siRNA Screen. As to conditions: mouse BRCA2 R2336H ES cells, olaparib, CellTiter-Glo viability; hits give high values. In short, it runs like this: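 Genome-wide siRNA screen (3 siRNAs/gene, 20 nM) in mouse ES cells carrying hypomorphic BRCA2 R2336H; olaparib 500 nM added 48 h post-transfection, CellTiter-Glo viability 72 h later. Normalized to plate-median negative control; MAD z-scores, gene median, seed-adjusted.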
Background: ATP-based viability assays read luminescence as a measure of living cells.
Consider GCUGUUUCCCAGAGAAGAATT against Defb2, for which the z-score was inactive: 0.265. Next, “GGAUGUUGUUCGAUUUGGATT against 1200002M06Rik”: inactive: -1.12; “GGAGAUGAUAAAGAUUAACTT against 3930401K13Rik”: inactive: -0.205. The same measure for “GGGCGGAGCAUUUUUCUUGTT against 1700013N18Rik”: inactive: -1.11; for “GGCCAUCCAUUGAAGACAUTT against 4930509O22”: inactive: 0.519. Next, “CCCACUUCCGAUCCAAAGATT against 3110024A21Rik”: inactive: -0.44; GGCUACGUAGGACAUGACUTT against Vmd2l3: inactive: 1.68. As to GGAAUUCAUACAGGAACUUTT against Mst1r, the z-score was inactive: 0.44. Next, GGAAAAACUGAAACAGUUUTT against Eif3s10: inactive: 0.338. The same measure for CGAAAACGUACAAGAUGAATT against Nap1l4: inactive: 0.845. In the case of GGUUGGAUUAUUAGGAAUUTT against Dnahc5, the z-score was inactive: -0.742.

For CCUUUUGAUAGAGAAGAGCTT against Olfr1426, the z-score was inactive: 0.651. Next, GCAGAAAAACAUCCACGACTT against Spn: inactive: 0.955. With GGAGUGAAAUUUCUGUAAUTT against Olfr796, the z-score was inactive: -0.0224.

Turning to “GGUUCUUUUGGUCUUCGUGTT against 1810020G14Rik”, the z-score is inactive: 0.106. Next, GGAUUGUCGAAUGGGUGCUTT against AI314976: inactive: -0.0925; GGUACCUCUGUAUUCAGCCTT against Olfr121: inactive: -0.261; GCCAACAUGUGUUUGUGUGTT against Krtap9-1: inactive: -0.702. For CCUGGUACUGAUUACUCCATT against LOC384806, the z-score was inactive: 0.324.

As for GCUUAGUUUAUGAGAAUGCTT against Ptprh, the z-score was inactive: 0.566. Next, GGAAAGAAAUAGUUAAGGGTT against Zfp239: inactive: 0.635; “GCCAUAAAAGCCUCAUUAGTT against C130021I20”: inactive: 1.3. Next, GCAGCAAGACCUACGAAGATT against Sel1h: inactive: -0.2. The same measure for GGAGGAGCGUACUAUUUAATT against Slc12a2: inactive: 0.378; for GGACAAGAGUGAGAAGGAATT against Yaf2: inactive: -1.43; for GCGAUAUCUCAACUUCCCGTT against Fchsd1: inactive: 0.271. For the sequence GGAGCCUCACUGAAUGUCUTT against Ankrd10, the z-score is inactive: -2.27. The same measure for “GGAUAAAAAUCACCCACUGTT against 4932416F07Rik”: inactive: -0.0284; for “GCGAGAAAGAAUUUAACCUTT against 1200013B08Rik”: inactive: 0.3.

Turning to GCGCAACUGUGUCCUGUUATT against Olfr133, the z-score was inactive: -1.71. The same measure for GAAUGUGUUAUUCCCAAAATT against Olfr784: inactive: 0.215; for ACUGUUAACCAAGGAGAAATT against Ghrhr: inactive: -0.514; for “CGGCGGUGUGUUGUUUUAGTT against 8430410A17Rik”: inactive: 1.14.

As for GGAAAUCUCUGGGAUUGUATT against Rpa3, the z-score is inactive: -3.11. The same measure for “GGAACAACAGGCAAUGAAUTT against C330011K17Rik”: inactive: -1.2.

As to GGAGUUAGAGCUGAGGUUATT against Ela1, the z-score was inactive: -2.59. Next, “GGAAUUUGUGACCAACUAUTT against 4921506I22Rik”: inactive: -0.392; “GGAAAAAAGCAAGAAAGACTT against 4933424F08Rik”: inactive: 0.147. With GGUAUUCUUUGAAGAAAACTT against Tbc1d14, the z-score was inactive: 0.446. The same measure for GGAAAAACUAUGUUGCUGATT against C78409: inactive: 0.716; for CGGCACUCAACUCAGAUACTT against Commd1: inactive: -0.3.

With GGUAUUCAAUUGAUCGUCATT against Cdh11, the z-score was inactive: 1.18.

For the sequence GGAAAAAAAUGCUGUAUACTT against Insm1, the z-score was inactive: 0.787. Regarding GGACAUGCUGGGUGAAGAATT against Ikbkg, the z-score is inactive: -2.31. As to GGAGAUACGCAGAGUUUGATT against Sgk3, the z-score is inactive: 0.398. On to CCUUCGUCGACAUUGCUGUTT against Zfp282, for which the z-score is inactive: 0.744.

Turning to GCCUGUCACCUGUAGCAACTT against Krtap12-1, the z-score is inactive: 0.404. The same measure for GGUUGCAUCUCUAGCUCCATT against Krt1-2: inactive: -0.877; for GGAGGUCUGUCUGGAUCCATT against Cxcl5: inactive: 0.551; for GGCUGUUACAUUCUAUAUUTT against Kif5c: inactive: 0.593.

Consider GCAUCAUUCGUUAUGCAAUTT against Itgax, for which the z-score is inactive: 1.47. The same measure for GCCGGUGAAGACCAUUCACTT against Paox: inactive: 0.219; for GGAGGACUUUGUGUCUUACTT against Pald: inactive: -1.23. Regarding GGAUCUCGCUGGCAAUAAUTT against Gpr45, the z-score was inactive: -0.242. Turning to “CCUUUUAGGCUUCCAGAAUTT against 0610009O03Rik”, the z-score was inactive: 0.14. The same measure for GGCCGAGAAGAUCAAAGCATT against Mrpl12: inactive: 0.175. The same measure for GGAAUUAUCUCACGGCCAGTT against Il17c: inactive: -0.501. Next, GCAAGGUGUUCUGACCCAUTT against Rps6: inactive: -3.14. Turning to GCCUUGCUGUCAAACCACUTT against Krtap9-1, the z-score is inactive: -0.132.

GCUCUGGAACAAUUCCUGCTT against Cstl1: the z-score is inactive: 0.946. The same measure for GGGACUUCAAUCACAUCAATT against Rpl9: inactive: -3.07; for GGAUCAAAGCCGUUCUUUUTT against Foxq1: inactive: 1.83.

As for GGACAAAAGUGAUGUUAAATT against Gabrb2, the z-score was inactive: -0.629. Next, “GCAAGACAUUUUGAGAAGATT against 5033406L14Rik”: inactive: -0.554; GGCGCAAUGCUCAUGUGAATT against Gzmc: inactive: -0.0426; GGCUUGAACACAAGAAAGCTT against Golph4: inactive: 0.284. Next, “GGCAUAAAGUUGUUUACAGTT against 3110006P09Rik”: active: 3.24; AGACUCUCUCUUGCACUAGTT against Retnla: inactive: -0.0408; GGCCUUUAUUGACUCCAAGTT against Syn3: inactive: 0.0662. The same measure for GGUCUUUCCAGAACAAAAATT against Rpa2: inactive: -3.24; for CGAACACUCGUUAAAGAAATT against Krt1-23: inactive: 0.184; for “CCCAUGCACAUCAUGAGAATT against 4931429L15Rik”: inactive: 0.161.

On to CCCACUACGUCAUACCACUTT against Olfr605, for which the z-score is inactive: 0.406. The same measure for CCGAUUCUGAGAGUAACAATT against Alx4: inactive: 0.138; for “GGAUCAAUUGGCACUAGACTT against 2210018M03Rik”: inactive: -0.959. Consider CCCACUAUGAUCCACCUAGTT against Hnrph2, for which the z-score is inactive: -0.05. Next, GCUACACGAAGAGGAACUUTT against Prph1: inactive: -0.296; GGAAAAAUGGUCUGUAAAATT against Adck2: inactive: -1.07. Next, GGUUCAUGUCAUCUUUAACTT against Calr: inactive: -0.87; GGCUUUCAUAUUCUGGAAUTT against Gabrb1: inactive: 0.417; GGAACUUGGAAUUUAGUUGTT against Pla2g4b: inactive: 0.501. The same measure for GGAAUCGGAGUAGAAUCCGTT against Tcfl5: inactive: 1.01; for UUGUCCUCACCUGUUUGUATT against Olfr748: inactive: -1.41; for GGGUUGAUUGACAGGUAAATT against H2-Q10: inactive: -0.71. In the case of GGGUAUUCAUGAUGUCUUUTT against Kctd6, the z-score is inactive: 1.24. Next, CCAUGUGGUGAGGACUUCATT against Pkp4: inactive: 0.581; GGCUUAUCAUAUGAAGACATT against Aplp2: inactive: 1.33; “GGCAUCUGAUUUAAGUCCUTT against 9130019P20Rik”: inactive: 0.483.

For GCAGUGAAGUCCAAGUUAGTT against Pold3, the z-score was inactive: -2.67. The same measure for “GGUGACACACUAGUAGACUTT against 2610207F23Rik”: inactive: 0.58; for GGCUAAGGCUCAACUAUUGTT against BC034068: inactive: -1.5. Next, “GGAAGAACAAAGAAAGAAGTT against E230015L20Rik”: inactive: 1.75; GCCCGAGUUAGAGCAGUUATT against AI842396: inactive: -1.12; GGAGGUGAAGUAUUUAGGUTT against Ccm2: inactive: 0.03. The same measure for GGAUAAAUGUGCAUCUUAGTT against Aasdhppt: inactive: -0.113. On to GGAGGAAAUGAUGAUUUUCTT against Kbtbd2, for which the z-score was inactive: 0.686.

For the sequence “GCAUGCAUGCUAUUGUUUUTT against 4931431C16Rik”, the z-score was inactive: 0.447.

For CCACCUUAACUGUUGCUUUTT against Mmp2, the z-score is inactive: 0.557. Next, GCAGUUAACUACGUUGCAATT against Zfp265: inactive: -1.8; CCAGAGUUUUAUAACGGAATT against Olfr1229: inactive: 1.15; GCUUCACUUCUACCCUAGATT against Il18bp: inactive: -1.5. The same measure for GCUAUUAUUGUACGUGCAATT against Emr1: inactive: 1.17. As to GCGAAUGAUUGCUUUCAAUTT against Inhbb, the z-score is inactive: -0.308. The same measure for GCUCAUUGCACUAAAAGACTT against Tnnt1: inactive: -0.497.
